PubChem BioAssay AID330 (DTP/NCI, 2004)
The list is a part of this screen's results and no random one: it is rich in T/C values a quarter to a half above the control, in often repeated tests (any T/C) and in doses without a T/C. Further doses and runs are listed elsewhere. T/C gives the treated animals as a percentage of the vehicle group. Some entries give survivors of the animals treated and no T/C: the source holds a T/C of zero for them, seemingly a mark for toxic or unscored doses. Some doses without a T/C left all or most animals alive at the check, yet need not have been tolerated: the source hardly ever lists a survival T/C far under the control, and the zero likely stands for such cases as well. Counts of survivors are from the toxicity check (mostly the fifth day) where no day follows; animals may have died later. Schedules are NCI's codes, taken here to give the interval after Q, in days (D) or hours (H), and the number of doses after X. Additions like (4×) count equal records among those shown. Some doses were run more than once; the values are given in rising order. For survival time, this PubChem deposit counts one and a half times the control or more as active, and values a quarter to a half above the control carry no call in these data; other NCI protocols may use other cut-offs. Some T/C values are followed by the survivors on the day toxicity was checked, most often the fifth; where none is given, no animal had died by that day.

Tested on: P388 leukemia ip, CD2F1 mice, survival T/C
Experiment: NCI In Vivo Anticancer Drug Screen. Data for tumor model P388 Leukemia (intraperitoneal) in CD2F1 (CDF1) mice
Conditions: T/C endpoint: median survival time, higher T/C = longer survival
[1] = dose: 50.0 mg/kg/injection, schedule: Q01DX009 (ip), vehicle: Klucel (hydroxypropylcellulose) (HPC)
[2] = dose: 100.0 mg/kg/injection, schedule: Q01DX009 (ip), vehicle: Klucel (hydroxypropylcellulose) (HPC)
[3] = dose: 200.0 mg/kg/injection, schedule: Q01DX009 (ip), vehicle: Klucel (hydroxypropylcellulose) (HPC)
[4] = dose: 400.0 mg/kg/injection, schedule: Q01DX009 (ip), vehicle: Klucel (hydroxypropylcellulose) (HPC)

## O=c1cnn(C2OC(CO)C(O)C2O)c(=O)[nH]1 (stereo not drawn)
dose: 50.0 mg/kg/injection, schedule: Q01DX001 (ip), vehicle: Klucel (hydroxypropylcellulose) (HPC), evaluated on day 30
  T/C: 90, 96, 97, 98, 100 (6×), 101 (2×), 102, 103, 105 (2×), 106 (2×), 107, 108 (2×), 110, 111, 115, 115 [2 of 3 alive], 118, 121, 126, 129 % of control
dose: 50.0 mg/kg/injection, schedule: Q01DX001 (ip), vehicle: Klucel (hydroxypropylcellulose) (HPC), evaluated on day 35
  T/C: 103 % of control
dose: 50.0 mg/kg/injection, schedule: Q01DX001 (ip), vehicle: Klucel (hydroxypropylcellulose) (HPC)
  survivor count: 3 of 3 and 6 of 6
dose: 50.0 mg/kg/injection, schedule: Q01DX005 (ip), vehicle: Klucel (hydroxypropylcellulose) (HPC), evaluated on day 30
  T/C: 99 (2×), 101 (2×), 102 (2×), 103 (2×), 104 (2×), 106 (3×), 108, 109 (2×), 110, 111 (2×), 112 (4×), 113, 113 [2 of 3 alive], 114 (4×), 115 (2×), 120 % of control (2×)
dose: 50.0 mg/kg/injection, schedule: Q01DX005 (ip), vehicle: Klucel (hydroxypropylcellulose) (HPC), evaluated on day 35
  T/C: 110 % of control
dose: 50.0 mg/kg/injection, schedule: Q01DX005 (ip), vehicle: Klucel (hydroxypropylcellulose) (HPC)
  survivor count: 1 of 3
[1]
  T/C: 95, 96, 101 (2×), 103 (2×), 104, 105, 106 (2×), 107 (2×), 108, 109 (2×), 110, 111, 112, 113 (2×), 115, 115 [2 of 3 alive], 116, 117, 118 (2×), 120 (2×), 121, 122, 125, 126 (2×), 130 % of control
  survivor count: 6 of 6
dose: 50.0 mg/kg/injection, schedule: Q04DX002 (ip), vehicle: Klucel (hydroxypropylcellulose) (HPC)
  T/C: 86, 88, 91 [5 of 6 alive], 96 (2×), 97, 99 (2×), 100, 101 (3×), 102 (2×), 103, 104, 105 (2×), 106 (3×), 109 (5×), 110 (2×), 112 (2×), 113, 116 (2×), 123, 134 % of control
dose: 50.0 mg/kg/injection, schedule: Q04DX003 (ip), vehicle: Klucel (hydroxypropylcellulose) (HPC), evaluated on day 30
  T/C: 90, 92, 95, 96, 99, 100, 101, 103 (3×), 105 (2×), 106 (4×), 107 (4×), 108 (2×), 109 (2×), 109 [3 of 4 alive], 111, 112, 113, 114 (3×), 119, 122, 123, 126 % of control
dose: 50.0 mg/kg/injection, schedule: Q04DX003 (ip), vehicle: Klucel (hydroxypropylcellulose) (HPC), evaluated on day 35
  T/C: 120 % of control
dose: 100.0 mg/kg/injection, schedule: Q01DX001 (ip), vehicle: Klucel (hydroxypropylcellulose) (HPC), evaluated on day 30
  T/C: 91, 92, 97 (2×), 99, 100 (2×), 101 (3×), 102, 103 (3×), 105 (2×), 106 (4×), 107 (3×), 108 (3×), 110, 111, 113 % of control
dose: 100.0 mg/kg/injection, schedule: Q01DX001 (ip), vehicle: Klucel (hydroxypropylcellulose) (HPC), evaluated on day 35
  T/C: 104 % of control [5 of 6 alive]
dose: 100.0 mg/kg/injection, schedule: Q01DX001 (ip), vehicle: Klucel (hydroxypropylcellulose) (HPC)
  survivor count: 3 of 3 and 6 of 6
dose: 100.0 mg/kg/injection, schedule: Q01DX005 (ip), vehicle: Klucel (hydroxypropylcellulose) (HPC), evaluated on day 30
  T/C: 91, 92, 101, 104, 104 [5 of 6 alive], 105, 106 (2×), 108, 109 (3×), 110, 111, 113 (3×), 114 (2×), 115 (3×), 116 (2×), 117 (3×), 118 (2×), 119, 120 (3×), 129 % of control
dose: 100.0 mg/kg/injection, schedule: Q01DX005 (ip), vehicle: Klucel (hydroxypropylcellulose) (HPC), evaluated on day 35
  T/C: 125 % of control
[2]
  T/C: 87, 100, 101, 102, 104, 105, 106 (3×), 107 (4×), 108, 109 (2×), 110 (3×), 111 (2×), 117, 118, 120, 121, 122, 124, 125 (2×), 128, 129, 131, 148, 166 % of control
  survivor count: 6 of 6
dose: 100.0 mg/kg/injection, schedule: Q04DX002 (ip), vehicle: Klucel (hydroxypropylcellulose) (HPC)
  T/C: 92, 93, 95, 97 (2×), 98, 99 (3×), 100 (4×), 101, 102 (3×), 105, 106 (3×), 107, 109 (3×), 110, 111 (4×), 112 % of control (5×)
dose: 100.0 mg/kg/injection, schedule: Q04DX003 (ip), vehicle: Klucel (hydroxypropylcellulose) (HPC), evaluated on day 30
  T/C: 88 [5 of 6 alive], 95 [2 of 3 alive], 99, 100 [2 of 3 alive], 102, 103 (3×), 104, 105 (4×), 106 (2×), 107, 108 (2×), 109 (2×), 110, 111 (5×), 113, 114, 115, 117 (3×), 118, 121 % of control (2×)
dose: 100.0 mg/kg/injection, schedule: Q04DX003 (ip), vehicle: Klucel (hydroxypropylcellulose) (HPC), evaluated on day 35
  T/C: 118 % of control
dose: 200.0 mg/kg/injection, schedule: Q01DX001 (ip), vehicle: Klucel (hydroxypropylcellulose) (HPC), evaluated on day 30
  T/C: 96, 100 (5×), 101 (5×), 103, 104, 105 (5×), 106 (5×), 107, 108 (2×), 111, 116, 118 % of control
dose: 200.0 mg/kg/injection, schedule: Q01DX001 (ip), vehicle: Klucel (hydroxypropylcellulose) (HPC), evaluated on day 35
  T/C: 104 % of control
dose: 200.0 mg/kg/injection, schedule: Q01DX001 (ip), vehicle: Klucel (hydroxypropylcellulose) (HPC)
  survivor count: 3 of 3 and 6 of 6
dose: 200.0 mg/kg/injection, schedule: Q01DX005 (ip), vehicle: Klucel (hydroxypropylcellulose) (HPC), evaluated on day 30
  T/C: 99, 102, 104, 108, 109, 111, 112 (5×), 113 (5×), 114, 115, 116 (3×), 117, 119, 120 (2×), 123 (4×), 127, 131 (2×), 132, 140 % of control
dose: 200.0 mg/kg/injection, schedule: Q01DX005 (ip), vehicle: Klucel (hydroxypropylcellulose) (HPC), evaluated on day 35
  T/C: 117 % of control
[3]
  T/C: 87, 94, 96, 98, 99, 100, 100 [2 of 3 alive], 101, 104 (2×), 105 (3×), 107 (2×), 108, 109, 110 (2×), 111, 112, 113 (2×), 115, 116, 118, 126 (2×), 127, 129, 145 % of control [5 of 6 alive]
  survivor count: 3 of 6 and 6 of 6
dose: 200.0 mg/kg/injection, schedule: Q04DX002 (ip), vehicle: Klucel (hydroxypropylcellulose) (HPC)
  T/C: 93, 94, 97, 98, 100 (3×), 101, 102 (4×), 103 (2×), 105 (3×), 106 (3×), 107, 108 (2×), 109 (3×), 111 (5×), 112 (2×), 116, 123 % of control
dose: 200.0 mg/kg/injection, schedule: Q04DX003 (ip), vehicle: Klucel (hydroxypropylcellulose) (HPC), evaluated on day 30
  T/C: 90, 91, 94 (2×), 96, 100, 101, 102, 103 (3×), 104 (3×), 105 (3×), 106 (4×), 106 [2 of 3 alive], 107, 110, 113 (3×), 114 (4×), 116, 117, 118, 122 % of control
dose: 200.0 mg/kg/injection, schedule: Q04DX003 (ip), vehicle: Klucel (hydroxypropylcellulose) (HPC), evaluated on day 35
  T/C: 124 % of control
dose: 400.0 mg/kg/injection, schedule: Q01DX001 (ip), vehicle: Klucel (hydroxypropylcellulose) (HPC), evaluated on day 30
  T/C: 100 (3×), 101 (2×), 102 (2×), 103 (3×), 104, 105, 106 (4×), 107, 108 (2×), 110 (2×), 111 (2×), 112 (2×), 116, 135, 137 % of control
dose: 400.0 mg/kg/injection, schedule: Q01DX001 (ip), vehicle: Klucel (hydroxypropylcellulose) (HPC), evaluated on day 35
  T/C: 91 % of control
dose: 400.0 mg/kg/injection, schedule: Q01DX001 (ip), vehicle: Klucel (hydroxypropylcellulose) (HPC)
  survivor count: 3 of 3 and 6 of 6
dose: 400.0 mg/kg/injection, schedule: Q01DX005 (ip), vehicle: Klucel (hydroxypropylcellulose) (HPC), evaluated on day 30
  T/C: 99, 111, 114, 115 (3×), 116 (3×), 117 (2×), 118 (2×), 120 (4×), 122 (3×), 123 (4×), 125 (2×), 126, 127 (3×), 128, 136, 138 % of control (2×)
dose: 400.0 mg/kg/injection, schedule: Q01DX005 (ip), vehicle: Klucel (hydroxypropylcellulose) (HPC), evaluated on day 35
  T/C: 127 % of control
[4]
  T/C: 96, 99, 100 (2×), 101, 102, 104, 105, 106, 107, 108 (2×), 114 (2×), 115 [2 of 3 alive], 118, 121, 125, 126, 128, 129 (2×), 130, 133, 135, 140, 142, 144 (2×), 145 % of control
  survivor count: 6 of 6 (2×)
dose: 400.0 mg/kg/injection, schedule: Q04DX002 (ip), vehicle: Klucel (hydroxypropylcellulose) (HPC)
  T/C: 94, 100 (3×), 103 (2×), 104 (3×), 105 (4×), 107 (3×), 108, 109 (3×), 110 (2×), 111 (3×), 112 (2×), 113, 115 (2×), 116 (2×), 117, 124, 126 % of control
dose: 400.0 mg/kg/injection, schedule: Q04DX003 (ip), vehicle: Klucel (hydroxypropylcellulose) (HPC), evaluated on day 30
  T/C: 91, 97, 100, 101 [5 of 6 alive], 102 (2×), 104 (2×), 105 (3×), 106 (2×), 109 (4×), 110 (3×), 111 (2×), 112, 113 (2×), 116 (3×), 117 (2×), 118, 119, 122, 126 % of control
dose: 400.0 mg/kg/injection, schedule: Q04DX003 (ip), vehicle: Klucel (hydroxypropylcellulose) (HPC), evaluated on day 35
  T/C: 100 % of control
dose: 400.0 mg/kg/injection, schedule: Q04DX003 (ip), vehicle: Klucel (hydroxypropylcellulose) (HPC)
  survivor count: 3 of 3

## CN(C)c1n[nH]c(N)n1
dose: 200.0 mg/kg/injection, schedule: Q01DX009 (ip), vehicle: saline
  survivor count: 6 of 6

## CSc1cccc(NC(=O)N2CCN(c3ccccc3)CC2)c1
dose: 50.0 mg/kg/injection, schedule: Q01DX009 (ip), vehicle: DMSO
  survivor count: 4 of 6
dose: 100.0 mg/kg/injection, schedule: Q01DX009 (ip), vehicle: DMSO
  survivor count: 0 of 6
dose: 200.0 mg/kg/injection, schedule: Q01DX009 (ip), vehicle: DMSO
  survivor count: 0 of 6

## COc1cccc(-c2nc(SC)nc(Cl)c2C#N)c1
dose: 240.0 mg/kg/injection, schedule: Q01DX005 (ip), vehicle: saline with Tween-80
  survivor count: 1 of 6

## O=C(Nc1nccs1)Nc1cc(C(F)(F)F)ccc1Cl
[3]
  survivor count: 0 of 6
